The list does not hold the whole screen: it is rich in T/C values a quarter to a half above the control, in often repeated tests (any T/C) and in doses without a T/C. Other doses and runs of a compound stand elsewhere. T/C: endpoint of the treated group in % of that of the vehicle group. Some entries give survivors of the animals treated and no T/C: the source files T/C as zero there, which appears to mark a toxic dose or a test without result, not a measured value. Some doses without a T/C left all or most animals alive at the check, yet need not have been tolerated: survival well below the control is almost never listed, so the zero probably covers shortened survival too. Survivors were counted at the toxicity check, usually on the fifth day, unless a day is given; later deaths do not show. Schedules are NCI's codes, read here as Q, the interval in days (D) or hours (H), X, the number of doses. Where survival is the endpoint, the PubChem record calls one and a half times the control and up active, and a quarter to a half above the control has no call in these data; cut-offs in other NCI protocols can differ. Some entries were tested several times; their values stand side by side, smallest first. Some T/C values are followed by the survivors on the day toxicity was checked, most often the fifth; where none is given, no animal had died by that day.
Test system: BDF1 mice, P388 leukemia ip, median survival T/C
Test: NCI In Vivo Anticancer Drug Screen. Data for tumor model P388 Leukemia (intraperitoneal) in B6D2F1 (BDF1) mice
Conditions: T/C endpoint: median survival time, higher T/C = longer survival
Procedure: The antitumor activity of compounds was measured in mice bearing transplantable tumors. Survival or tumor size were measured and the results are expressed as the measurement made in the treated group (T) divided by the measurement made in the vehicle treated control group (C). The tumor model used in this assay is P388 Leukemia (intraperitoneal) in B6D2F1 (BDF1) mice

[1] = dose: 400.0 mg/kg/injection, schedule: Q04DX003 (ip), vehicle: saline with Tween-80
[2] = dose: 200.0 mg/kg/injection, schedule: Q04DX003 (ip), vehicle: water
[3] = dose: 400.0 mg/kg/injection, schedule: Q04DX003 (ip), vehicle: Klucel (hydroxypropylcellulose) (HPC)
[4] = dose: 400.0 mg/kg/injection, schedule: Q04DX003 (ip), vehicle: saline
[5] = dose: 50.0 mg/kg/injection, schedule: Q01DX009 (ip), vehicle: saline
[6] = dose: 200.0 mg/kg/injection, schedule: Q01DX009 (ip), vehicle: Klucel (hydroxypropylcellulose) (HPC)
[7] = dose: 200.0 mg/kg/injection, schedule: Q01DX009 (ip), vehicle: saline
[8] = dose: 25.0 mg/kg/injection, schedule: Q01DX009 (ip), vehicle: saline with Tween-80
[9] = dose: 100.0 mg/kg/injection, schedule: Q01DX009 (ip), vehicle: saline with Tween-80
[10] = dose: 12.5 mg/kg/injection, schedule: Q01DX009 (ip), vehicle: saline
[11] = dose: 25.0 mg/kg/injection, schedule: Q01DX009 (ip), vehicle: saline

COC(=O)/C=C1\C(C(=O)OC)=Cc2ccccc2N1C
survivor count [1]: 6 of 6

COc1cc2c(cc1OC)C(OC)N(C)c1c-2ccc2cc(OC)c(OC)cc12 (stereo unspecified)
T/C (dose: 50.0 mg/kg/injection, schedule: Q04DX003 (ip), vehicle: water): 134 % of control
T/C (dose: 100.0 mg/kg/injection, schedule: Q04DX003 (ip), vehicle: water): 148 % of control [5 of 6 alive]
T/C [2]: 142 % of control [5 of 6 alive]

CCNC(C)(C)C(SS(=O)(=O)O)c1ccc(Cl)s1 (stereo unspecified)
survivor count [1]: 4 of 6

ClC1=C(Cl)C2(Cl)C3COCC3C1(Cl)C2(Cl)Cl (stereo unspecified)
survivor count (dose: 100.0 mg/kg/injection, schedule: Q04DX003 (ip), vehicle: Klucel (hydroxypropylcellulose) (HPC)): 6 of 6
survivor count [3]: 5 of 6

NNc1nccnc1Cl
survivor count [4]: 1 of 6

c1ccc2c(c1)Sc1ccccc1N2CCCN1CCCC1
T/C [5]: 136 % of control

O=C1c2ccccc2C(=O)N1N(c1ccccc1)c1ccccc1
survivor count [6]: 3 of 6

Clc1ccc(C2c3ccccc3C[n+]3ccccc32)cc1 (stereo unspecified)
survivor count (dose: 35.0 mg/kg/injection, schedule: Q01DX009 (ip), vehicle: Klucel (hydroxypropylcellulose) (HPC)): 0 of 6
survivor count (dose: 50.0 mg/kg/injection, schedule: Q04DX003 (ip), vehicle: Klucel (hydroxypropylcellulose) (HPC)): 6 of 6

OCCN1CCN(CCCN2c3ccccc3Oc3ccc(C(F)(F)F)cc32)CC1
T/C (dose: 25.0 mg/kg/injection, schedule: Q01DX009 (ip), vehicle: Klucel (hydroxypropylcellulose) (HPC)): 144 % of control
T/C [5]: 125 % of control
T/C (dose: 60.0 mg/kg/injection, schedule: Q04DX003 (ip), vehicle: saline): 125 % of control
survivor count (dose: 100.0 mg/kg/injection, schedule: Q01DX009 (ip), vehicle: Klucel (hydroxypropylcellulose) (HPC)): 3 of 10
survivor count (dose: 100.0 mg/kg/injection, schedule: Q01DX009 (ip), vehicle: saline): 3 of 8
survivor count [6]: 0 of 10
survivor count [7]: 0 of 8

CCCCCCCC/C=C/CCCCCCCC(=O)NCCCN (tested in a mixture with another compound)
survivor count (dose: 100.0 mg/kg/injection, schedule: Q04DX002 (ip), vehicle: saline with Tween-80): 4 of 6
survivor count (dose: 200.0 mg/kg/injection, schedule: Q04DX002 (ip), vehicle: saline with Tween-80): 2 of 6
survivor count (dose: 400.0 mg/kg/injection, schedule: Q04DX002 (ip), vehicle: saline with Tween-80): 0 of 6

CCSc1nc(Cl)cc(Sc2nc(N)nc3nc[nH]c23)n1
T/C (dose: 26.0 mg/kg/injection, schedule: Q01DX009 (ip), vehicle: Klucel (hydroxypropylcellulose) (HPC)): 135 % of control
T/C (dose: 40.0 mg/kg/injection, schedule: Q01DX009 (ip), vehicle: Klucel (hydroxypropylcellulose) (HPC)): 130 % of control
T/C (dose: 60.0 mg/kg/injection, schedule: Q01DX009 (ip), vehicle: Klucel (hydroxypropylcellulose) (HPC)): 130 % of control
T/C (dose: 88.0 mg/kg/injection, schedule: Q01DX009 (ip), vehicle: Klucel (hydroxypropylcellulose) (HPC)): 145 % of control
T/C (dose: 88.0 mg/kg/injection, schedule: Q01DX010 (ip), vehicle: saline): 125 % of control
T/C (dose: 132.0 mg/kg/injection, schedule: Q01DX009 (ip), vehicle: Klucel (hydroxypropylcellulose) (HPC)): 140 % of control
survivor count (dose: 300.0 mg/kg/injection, schedule: Q01DX010 (ip), vehicle: saline): 6 of 6

C1=CC2CC1C1CSCC21 (stereo unspecified)
survivor count (dose: 0.55 mg/kg/injection, schedule: Q04DX003 (ip), vehicle: saline): 2 of 6
survivor count (dose: 0.78 mg/kg/injection, schedule: Q01DX009 (ip), vehicle: saline): 6 of 6
survivor count (dose: 1.1 mg/kg/injection, schedule: Q04DX003 (ip), vehicle: saline): 0 of 6

COc1ccc(CC2c3cc(OC)c(OC)cc3CCN2C(C)=O)cc1OC (stereo unspecified)
survivor count (dose: 100.0 mg/kg/injection, schedule: Q01DX005 (ip), vehicle: saline with Tween-80): 5 of 6

Cc1ccc(CC2NC(=O)NC2=O)cc1 (stereo unspecified)
T/C [8]: 126 % of control
survivor count (dose: 50.0 mg/kg/injection, schedule: Q01DX009 (ip), vehicle: saline with Tween-80): 6 of 6

CCSC(=O)N1c2ccc(OC)cc2C=CC1C#N (stereo unspecified)
T/C (dose: 266.0 mg/kg/injection, schedule: Q04DX003 (ip), vehicle: saline with Tween-80): 125 % of control
T/C [1]: 125 % of control

C#CC(OC(=O)NC1CCCCC1)(c1ccccc1)c1ccccc1
T/C (dose: 11.0 mg/kg/injection, schedule: Q01DX009 (ip), vehicle: saline with Tween-80): 130 % of control
T/C [8]: 127 % of control
survivor count [9]: 6 of 6
survivor count (dose: 100.0 mg/kg/injection, schedule: Q04DX003 (ip), vehicle: saline with Tween-80): 6 of 6
T/C (dose: 200.0 mg/kg/injection, schedule: Q04DX003 (ip), vehicle: saline with Tween-80): 146 % of control
survivor count (dose: 300.0 mg/kg/injection, schedule: Q04DX003 (ip), vehicle: saline with Tween-80): 6 of 6
survivor count [1]: 0 of 6

NC(=O)Nc1cccc2ccccc12
survivor count (dose: 100.0 mg/kg/injection, schedule: Q01DX009 (ip), vehicle: gum acacia): 6 of 6
survivor count [3]: 6 of 6

CC1=C(O)C(=O)C(C2=C(O)C(=O)C(C)=C(O)C2=O)=C(O)C1=O
survivor count (dose: 2.5 mg/kg/injection, schedule: Q01DX010 (ip), vehicle: saline): 5 of 6
survivor count (dose: 5.0 mg/kg/injection, schedule: Q01DX010 (ip), vehicle: saline): 0 of 6

COc1cccc2c1C(=O)CC2
survivor count (dose: 300.0 mg/kg/injection, schedule: Q04DX003 (ip), vehicle: Klucel (hydroxypropylcellulose) (HPC)): 3 of 6

CN(/N=N/N(C)c1ccccc1)c1ccccc1
T/C [9]: 135 % of control

O=C(O)C(O)C(O)C(O)C(O)CO.[Mn] (stereo unspecified)
T/C (dose: 66.0 mg/kg/injection, schedule: Q01DX009 (ip), vehicle: saline sonified): 125 % of control
T/C (dose: 100.0 mg/kg/injection, schedule: Q01DX009 (ip), vehicle: saline sonified): 133 % of control
T/C (dose: 150.0 mg/kg/injection, schedule: Q01DX009 (ip), vehicle: saline sonified): 129 % of control
T/C (dose: 150.0 mg/kg/injection, schedule: Q01DX009 (ip), vehicle: saline): 125 % of control

Cc1ccc(OC(=O)Nc2ccc(C(=O)O)c(O)c2)cc1
T/C [7]: 131 % of control [4 of 6 alive]
survivor count [4]: 3 of 6

Cc1nnc(NC(=O)CCl)s1
T/C [5]: 127 and 131 % of control
T/C (dose: 75.0 mg/kg/injection, schedule: Q01DX009 (ip), vehicle: saline): 136 % of control
survivor count (dose: 400.0 mg/kg/injection, schedule: Q01DX009 (ip), vehicle: Klucel (hydroxypropylcellulose) (HPC)): 1 of 3

CCOc1ccc([N+](=O)[O-])cc1CN(CC)CC
survivor count (dose: 20.0 mg/kg/injection, schedule: Q01DX009 (ip), vehicle: saline): 6 of 6
survivor count (dose: 40.0 mg/kg/injection, schedule: Q01DX009 (ip), vehicle: saline): 1 of 6

O=C(Oc1ccc(-c2ccc(Br)cc2)cc1)c1ccco1
survivor count (dose: 200.0 mg/kg/injection, schedule: Q01DX009 (ip), vehicle: saline with Tween-80): 6 of 6
survivor count (dose: 400.0 mg/kg/injection, schedule: Q01DX009 (ip), vehicle: saline with Tween-80): 4 of 6

CCCCCCCOc1ccc(OCCCC[N+]2(CC)CCCCC2)cc1
survivor count [10]: 4 of 6
survivor count [11]: 0 of 6

CCCCCCCC(=O)NN
survivor count [2]: 4 of 6
survivor count (dose: 400.0 mg/kg/injection, schedule: Q01DX009 (ip), vehicle: other): 4 of 6
survivor count (dose: 400.0 mg/kg/injection, schedule: Q04DX003 (ip), vehicle: water): 6 of 6

O=C(C=C(C(F)(F)F)C(F)(F)F)c1cccc(Cl)c1
survivor count [8]: 0 of 6

O=[N+]([O-])c1ccc2scc3c4ccccc4nc-3c2c1
survivor count [10]: 5 of 6
survivor count [11]: 6 of 6

Reference: PubChem BioAssay AID328 (DTP/NCI, 2004)
